Source: the M2OR odorant receptor database
The list shows a part of the results. Calls are pooled over several reports, among them a noisy single-well screen.

How the values were obtained:
Conditions in all cases: stereoisomer not certain
O13C5 = tested on: T1, O13C5
T1 sequence (whole entry): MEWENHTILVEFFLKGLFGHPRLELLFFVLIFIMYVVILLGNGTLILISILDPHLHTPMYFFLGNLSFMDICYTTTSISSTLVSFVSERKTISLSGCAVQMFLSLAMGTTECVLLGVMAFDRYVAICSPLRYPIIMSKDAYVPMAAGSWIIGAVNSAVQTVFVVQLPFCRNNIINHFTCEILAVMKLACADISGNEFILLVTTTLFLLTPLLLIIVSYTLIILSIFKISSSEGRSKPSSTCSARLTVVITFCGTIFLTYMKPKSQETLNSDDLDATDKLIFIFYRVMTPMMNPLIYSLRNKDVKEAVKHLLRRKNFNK
Method in brief: (§1)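 Assay methods differ from source to source, frequently being transient luciferase assays in mammalian cell lines. For each receptor–molecule pair, the label responsive (active) applies when the original authors judged the measured signal statistically different from baseline, and non-responsive (inactive) applies otherwise.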

O13C7 = tested on: T2, O13C7
T2 sequence (whole entry): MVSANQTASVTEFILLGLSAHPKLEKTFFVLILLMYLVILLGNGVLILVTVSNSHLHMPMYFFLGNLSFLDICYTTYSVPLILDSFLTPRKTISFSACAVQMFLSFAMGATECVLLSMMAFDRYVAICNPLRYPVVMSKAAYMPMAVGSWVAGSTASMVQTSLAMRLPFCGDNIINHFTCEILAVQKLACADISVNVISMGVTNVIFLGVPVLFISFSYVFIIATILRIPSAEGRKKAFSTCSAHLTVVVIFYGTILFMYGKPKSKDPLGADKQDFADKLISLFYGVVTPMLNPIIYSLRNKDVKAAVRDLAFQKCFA
Method in brief: as §1

O13C9 = tested on: T3, O13C9
T3 sequence (whole entry): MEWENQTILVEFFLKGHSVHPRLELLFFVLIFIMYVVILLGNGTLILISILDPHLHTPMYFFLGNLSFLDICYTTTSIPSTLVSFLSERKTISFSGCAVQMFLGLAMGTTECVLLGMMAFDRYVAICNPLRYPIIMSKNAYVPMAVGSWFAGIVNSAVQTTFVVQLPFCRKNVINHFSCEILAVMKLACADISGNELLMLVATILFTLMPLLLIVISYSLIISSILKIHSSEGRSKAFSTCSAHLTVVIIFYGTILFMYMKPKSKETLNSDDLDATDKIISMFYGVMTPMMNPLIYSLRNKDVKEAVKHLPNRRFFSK
Method in brief: as §1

O13D1 [1] = tested on: T4, O13D1
T4 sequence (whole entry): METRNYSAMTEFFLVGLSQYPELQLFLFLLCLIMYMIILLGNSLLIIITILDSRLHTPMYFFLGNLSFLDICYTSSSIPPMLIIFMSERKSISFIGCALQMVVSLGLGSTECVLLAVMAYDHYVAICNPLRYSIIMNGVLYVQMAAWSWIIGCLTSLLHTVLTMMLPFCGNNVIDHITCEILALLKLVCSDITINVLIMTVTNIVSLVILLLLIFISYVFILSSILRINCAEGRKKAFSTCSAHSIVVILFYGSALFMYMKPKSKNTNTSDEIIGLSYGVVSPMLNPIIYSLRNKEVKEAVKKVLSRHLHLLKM
Method in brief: as §1

O13D1 [2] = tested on: T5, O13D1; remark: listed apart in the source
T5 sequence (whole entry): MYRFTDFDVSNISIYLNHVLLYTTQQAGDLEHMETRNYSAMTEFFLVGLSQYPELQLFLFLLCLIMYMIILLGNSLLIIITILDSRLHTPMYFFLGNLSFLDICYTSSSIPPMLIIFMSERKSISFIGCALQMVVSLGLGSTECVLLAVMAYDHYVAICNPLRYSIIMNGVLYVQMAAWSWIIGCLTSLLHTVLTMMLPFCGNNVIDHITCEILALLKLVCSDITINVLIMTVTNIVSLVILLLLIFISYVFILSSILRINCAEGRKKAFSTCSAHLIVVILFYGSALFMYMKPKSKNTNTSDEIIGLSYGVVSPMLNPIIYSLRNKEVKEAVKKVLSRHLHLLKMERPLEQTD
Method in brief: as §1

O13F1 = tested on: T6, O13F1
T6 sequence (whole entry): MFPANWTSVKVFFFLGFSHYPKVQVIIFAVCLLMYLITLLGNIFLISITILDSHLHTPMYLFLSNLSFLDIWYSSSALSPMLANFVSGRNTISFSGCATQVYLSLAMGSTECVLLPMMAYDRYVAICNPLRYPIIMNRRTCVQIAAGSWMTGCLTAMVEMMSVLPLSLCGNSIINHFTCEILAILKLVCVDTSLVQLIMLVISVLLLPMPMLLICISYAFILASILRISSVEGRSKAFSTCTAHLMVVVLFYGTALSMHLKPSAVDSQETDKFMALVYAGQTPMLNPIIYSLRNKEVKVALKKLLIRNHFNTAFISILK
Method in brief: as §1

O13G1 = tested on: T7, O13G1
T7 sequence (whole entry): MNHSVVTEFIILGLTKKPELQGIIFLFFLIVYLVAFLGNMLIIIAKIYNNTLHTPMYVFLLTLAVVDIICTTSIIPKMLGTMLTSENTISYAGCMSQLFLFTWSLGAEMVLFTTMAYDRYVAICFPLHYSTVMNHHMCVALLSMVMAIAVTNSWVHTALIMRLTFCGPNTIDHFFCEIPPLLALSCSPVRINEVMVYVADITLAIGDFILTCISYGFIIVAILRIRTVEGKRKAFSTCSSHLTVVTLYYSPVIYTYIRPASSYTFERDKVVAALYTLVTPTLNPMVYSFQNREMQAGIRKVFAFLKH
Method in brief: as §1

O13J1 = tested on: T8, O13J1
T8 sequence (whole entry): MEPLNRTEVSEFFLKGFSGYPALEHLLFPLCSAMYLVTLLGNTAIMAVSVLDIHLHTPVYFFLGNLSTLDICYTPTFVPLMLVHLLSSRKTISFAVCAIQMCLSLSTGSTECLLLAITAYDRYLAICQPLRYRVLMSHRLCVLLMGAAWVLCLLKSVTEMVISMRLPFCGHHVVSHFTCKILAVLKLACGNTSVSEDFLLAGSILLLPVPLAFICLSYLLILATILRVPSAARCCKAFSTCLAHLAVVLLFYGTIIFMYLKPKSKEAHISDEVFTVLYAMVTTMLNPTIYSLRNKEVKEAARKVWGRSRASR
Method in brief: as §1

| Structure (SMILES) | odorant receptor agonist call (O13C5) | odorant receptor agonist call (O13C7) | odorant receptor agonist call (O13C9) | odorant receptor agonist call (O13D1 [1]) | odorant receptor agonist call (O13D1 [2]) | odorant receptor agonist call (O13F1) | odorant receptor agonist call (O13G1) | odorant receptor agonist call (O13J1) |
| --- | --- | --- | --- | --- | --- | --- | --- | --- |
| CCCCCCCCCC=O | inactive | inactive | inactive | inactive | inactive | inactive | inactive | inactive |
| CC(C)C(=O)O | inactive | inactive | inactive | inactive | inactive | inactive | inactive | inactive |
| CCCCCCOC(=O)CCC | inactive | inactive | inactive | inactive | inactive | inactive | inactive | inactive |
| CC1CCC(C(C)C)C(O)C1 (stereo not given) | active | inactive | inactive | active | inactive | inactive | inactive | inactive |
| CC(C)(C)c1ccc(CCC=O)cc1 | inactive | inactive | inactive | inactive | inactive | inactive | inactive | inactive |
| CCCCCCCC=O | inactive | inactive | inactive | inactive | inactive | inactive | inactive | inactive |
| CCC1(O)C2(C)CCC(C2)C1(C)C (stereo not given) | inactive | inactive | inactive | inactive | inactive | inactive | inactive | inactive |
| CCCCCCCCCCC=O | inactive | inactive | inactive | inactive | inactive | inactive | inactive | inactive |
| CC1=CCC(C(C)(C)O)CC1 (stereo not given) | inactive | inactive | inactive | inactive | inactive | inactive | inactive | inactive |
| CC(=O)OC(C)(C)C1CC=C(C)CC1 (stereo not given) | inactive | inactive | inactive | inactive | inactive | inactive | inactive | inactive |
| CC12C=CCC1C1CCC3CC(=O)CCC3(C)C1CC2 (stereo not given) | inactive | inactive | inactive | inactive | inactive | inactive | inactive | inactive |
| CCCC(=O)O | inactive | inactive | inactive | inactive | inactive | inactive | inactive | inactive |
| C=CC(C)(O)CCC=C(C)C (stereo not given) | inactive | inactive | inactive | inactive | inactive | inactive | inactive | inactive |
| CCCCCOC(C)=O | inactive | inactive | inactive | inactive | inactive | inactive | inactive | inactive |
| COc1cc(C)ccc1O | inactive | inactive | inactive | inactive | inactive | inactive | inactive | inactive |
| C=CCc1ccc(OC)c(OC)c1 | inactive | inactive | inactive | inactive | inactive | inactive | inactive | inactive |
| CCC=CCCO | inactive | inactive | inactive | inactive | inactive | inactive | inactive | inactive |
| CCCCO | inactive | inactive | inactive | inactive | inactive | inactive | inactive | inactive |
| CC(C)C=O | inactive | inactive | inactive | inactive | inactive | inactive | inactive | inactive |
| CC12CCC(C1)C(C)(C)C2=O (stereo not given) | inactive | inactive | inactive | inactive | inactive | inactive | inactive | inactive |
| COC(=O)c1ccccc1 | inactive | inactive | inactive | inactive | inactive | inactive | inactive | inactive |
| c1cnccn1 | inactive | inactive | inactive | inactive | inactive | inactive | inactive | inactive |
| COc1cc(C=O)ccc1O | inactive | inactive | inactive | inactive | inactive | inactive | inactive | inactive |
| CCCCCCCC=CC=O | inactive | inactive | inactive | inactive | inactive | inactive | active | inactive |
| CC(C)CCC(=O)O | inactive | inactive | inactive | inactive | inactive | inactive | inactive | inactive |

2 of these compounds in a different format:
CC12C=CCC1C1CCC3CC(=O)CCC3(C)C1CC2 (stereo not given)
  odorant receptor agonist call (O13C5): inactive; odorant receptor agonist call (O13C7): inactive; odorant receptor agonist call (O13C9): inactive; odorant receptor agonist call (O13D1 [1]): inactive; odorant receptor agonist call (O13D1 [2]): inactive; odorant receptor agonist call (O13F1): inactive; odorant receptor agonist call (O13G1): inactive; odorant receptor agonist call (O13J1): inactive
CCCC(=O)O
  odorant receptor agonist call (O13C5): inactive; odorant receptor agonist call (O13C7): inactive; odorant receptor agonist call (O13C9): inactive; odorant receptor agonist call (O13D1 [1]): inactive; odorant receptor agonist call (O13D1 [2]): inactive; odorant receptor agonist call (O13F1): inactive; odorant receptor agonist call (O13G1): inactive; odorant receptor agonist call (O13J1): inactive
